In the supplement of paper PMC12067093, “Discovery and optimisation of a covalent ligand for TRIM25 and its application to targeted protein ubiquitination” (Chemical Science, 2025):
The list shows a part of the results.

Sequences of proteins named here, by UniProt entry; tags and fusion partners are left off. A change or cut given only in a name is not applied to a line headed by its entry.
UniProt Q12986: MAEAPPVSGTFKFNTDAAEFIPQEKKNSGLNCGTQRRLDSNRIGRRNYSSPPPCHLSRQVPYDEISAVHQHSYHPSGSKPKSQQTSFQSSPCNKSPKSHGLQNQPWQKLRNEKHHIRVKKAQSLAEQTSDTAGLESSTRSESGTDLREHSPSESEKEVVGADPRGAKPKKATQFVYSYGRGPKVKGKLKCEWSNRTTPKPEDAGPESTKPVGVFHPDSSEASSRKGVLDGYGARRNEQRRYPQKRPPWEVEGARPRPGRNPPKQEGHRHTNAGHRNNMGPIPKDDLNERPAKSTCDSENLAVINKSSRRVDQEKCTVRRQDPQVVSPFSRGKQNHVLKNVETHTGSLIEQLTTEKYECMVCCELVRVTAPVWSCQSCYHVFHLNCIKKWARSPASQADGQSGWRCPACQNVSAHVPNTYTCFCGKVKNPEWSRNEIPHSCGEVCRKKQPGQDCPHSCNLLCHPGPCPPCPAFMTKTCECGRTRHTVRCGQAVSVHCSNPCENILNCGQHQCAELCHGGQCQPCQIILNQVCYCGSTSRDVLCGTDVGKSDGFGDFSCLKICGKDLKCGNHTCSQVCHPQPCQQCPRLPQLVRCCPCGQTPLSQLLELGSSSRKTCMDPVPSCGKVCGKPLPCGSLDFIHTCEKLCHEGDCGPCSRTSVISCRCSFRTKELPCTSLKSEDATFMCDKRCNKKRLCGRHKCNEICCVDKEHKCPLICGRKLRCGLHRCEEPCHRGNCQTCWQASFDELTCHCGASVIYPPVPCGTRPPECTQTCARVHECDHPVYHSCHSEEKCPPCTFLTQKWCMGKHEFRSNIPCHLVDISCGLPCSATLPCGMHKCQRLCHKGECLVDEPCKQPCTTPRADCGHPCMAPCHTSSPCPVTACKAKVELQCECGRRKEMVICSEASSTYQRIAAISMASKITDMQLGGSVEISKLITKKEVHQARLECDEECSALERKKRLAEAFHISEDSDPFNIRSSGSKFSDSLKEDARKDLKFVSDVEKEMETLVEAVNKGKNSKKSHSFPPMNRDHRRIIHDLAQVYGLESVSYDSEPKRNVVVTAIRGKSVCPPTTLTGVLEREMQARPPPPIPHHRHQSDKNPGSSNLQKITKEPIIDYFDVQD
UniProt P51957: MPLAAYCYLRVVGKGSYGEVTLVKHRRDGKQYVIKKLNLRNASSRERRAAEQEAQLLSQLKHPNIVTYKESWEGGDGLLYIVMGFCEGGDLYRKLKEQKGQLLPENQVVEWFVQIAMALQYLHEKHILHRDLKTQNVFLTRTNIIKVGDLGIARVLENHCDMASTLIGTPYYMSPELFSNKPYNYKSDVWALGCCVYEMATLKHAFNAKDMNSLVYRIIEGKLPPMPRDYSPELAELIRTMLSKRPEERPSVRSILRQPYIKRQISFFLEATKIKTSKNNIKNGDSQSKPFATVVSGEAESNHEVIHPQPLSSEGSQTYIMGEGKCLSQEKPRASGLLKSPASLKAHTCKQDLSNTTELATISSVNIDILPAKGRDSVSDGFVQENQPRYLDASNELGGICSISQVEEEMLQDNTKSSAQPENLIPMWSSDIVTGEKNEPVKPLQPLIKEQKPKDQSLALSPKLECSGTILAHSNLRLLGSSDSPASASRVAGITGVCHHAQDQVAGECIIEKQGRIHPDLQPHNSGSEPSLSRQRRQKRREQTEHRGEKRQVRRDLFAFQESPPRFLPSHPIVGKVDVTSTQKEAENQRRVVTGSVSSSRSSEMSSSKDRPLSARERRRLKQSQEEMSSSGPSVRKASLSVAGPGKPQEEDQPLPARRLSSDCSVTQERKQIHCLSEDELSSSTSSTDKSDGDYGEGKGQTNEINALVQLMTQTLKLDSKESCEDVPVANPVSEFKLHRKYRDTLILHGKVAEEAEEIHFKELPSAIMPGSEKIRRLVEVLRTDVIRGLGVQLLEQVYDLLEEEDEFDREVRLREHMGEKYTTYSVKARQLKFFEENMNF
UniProt O75376, whole entry, looked up: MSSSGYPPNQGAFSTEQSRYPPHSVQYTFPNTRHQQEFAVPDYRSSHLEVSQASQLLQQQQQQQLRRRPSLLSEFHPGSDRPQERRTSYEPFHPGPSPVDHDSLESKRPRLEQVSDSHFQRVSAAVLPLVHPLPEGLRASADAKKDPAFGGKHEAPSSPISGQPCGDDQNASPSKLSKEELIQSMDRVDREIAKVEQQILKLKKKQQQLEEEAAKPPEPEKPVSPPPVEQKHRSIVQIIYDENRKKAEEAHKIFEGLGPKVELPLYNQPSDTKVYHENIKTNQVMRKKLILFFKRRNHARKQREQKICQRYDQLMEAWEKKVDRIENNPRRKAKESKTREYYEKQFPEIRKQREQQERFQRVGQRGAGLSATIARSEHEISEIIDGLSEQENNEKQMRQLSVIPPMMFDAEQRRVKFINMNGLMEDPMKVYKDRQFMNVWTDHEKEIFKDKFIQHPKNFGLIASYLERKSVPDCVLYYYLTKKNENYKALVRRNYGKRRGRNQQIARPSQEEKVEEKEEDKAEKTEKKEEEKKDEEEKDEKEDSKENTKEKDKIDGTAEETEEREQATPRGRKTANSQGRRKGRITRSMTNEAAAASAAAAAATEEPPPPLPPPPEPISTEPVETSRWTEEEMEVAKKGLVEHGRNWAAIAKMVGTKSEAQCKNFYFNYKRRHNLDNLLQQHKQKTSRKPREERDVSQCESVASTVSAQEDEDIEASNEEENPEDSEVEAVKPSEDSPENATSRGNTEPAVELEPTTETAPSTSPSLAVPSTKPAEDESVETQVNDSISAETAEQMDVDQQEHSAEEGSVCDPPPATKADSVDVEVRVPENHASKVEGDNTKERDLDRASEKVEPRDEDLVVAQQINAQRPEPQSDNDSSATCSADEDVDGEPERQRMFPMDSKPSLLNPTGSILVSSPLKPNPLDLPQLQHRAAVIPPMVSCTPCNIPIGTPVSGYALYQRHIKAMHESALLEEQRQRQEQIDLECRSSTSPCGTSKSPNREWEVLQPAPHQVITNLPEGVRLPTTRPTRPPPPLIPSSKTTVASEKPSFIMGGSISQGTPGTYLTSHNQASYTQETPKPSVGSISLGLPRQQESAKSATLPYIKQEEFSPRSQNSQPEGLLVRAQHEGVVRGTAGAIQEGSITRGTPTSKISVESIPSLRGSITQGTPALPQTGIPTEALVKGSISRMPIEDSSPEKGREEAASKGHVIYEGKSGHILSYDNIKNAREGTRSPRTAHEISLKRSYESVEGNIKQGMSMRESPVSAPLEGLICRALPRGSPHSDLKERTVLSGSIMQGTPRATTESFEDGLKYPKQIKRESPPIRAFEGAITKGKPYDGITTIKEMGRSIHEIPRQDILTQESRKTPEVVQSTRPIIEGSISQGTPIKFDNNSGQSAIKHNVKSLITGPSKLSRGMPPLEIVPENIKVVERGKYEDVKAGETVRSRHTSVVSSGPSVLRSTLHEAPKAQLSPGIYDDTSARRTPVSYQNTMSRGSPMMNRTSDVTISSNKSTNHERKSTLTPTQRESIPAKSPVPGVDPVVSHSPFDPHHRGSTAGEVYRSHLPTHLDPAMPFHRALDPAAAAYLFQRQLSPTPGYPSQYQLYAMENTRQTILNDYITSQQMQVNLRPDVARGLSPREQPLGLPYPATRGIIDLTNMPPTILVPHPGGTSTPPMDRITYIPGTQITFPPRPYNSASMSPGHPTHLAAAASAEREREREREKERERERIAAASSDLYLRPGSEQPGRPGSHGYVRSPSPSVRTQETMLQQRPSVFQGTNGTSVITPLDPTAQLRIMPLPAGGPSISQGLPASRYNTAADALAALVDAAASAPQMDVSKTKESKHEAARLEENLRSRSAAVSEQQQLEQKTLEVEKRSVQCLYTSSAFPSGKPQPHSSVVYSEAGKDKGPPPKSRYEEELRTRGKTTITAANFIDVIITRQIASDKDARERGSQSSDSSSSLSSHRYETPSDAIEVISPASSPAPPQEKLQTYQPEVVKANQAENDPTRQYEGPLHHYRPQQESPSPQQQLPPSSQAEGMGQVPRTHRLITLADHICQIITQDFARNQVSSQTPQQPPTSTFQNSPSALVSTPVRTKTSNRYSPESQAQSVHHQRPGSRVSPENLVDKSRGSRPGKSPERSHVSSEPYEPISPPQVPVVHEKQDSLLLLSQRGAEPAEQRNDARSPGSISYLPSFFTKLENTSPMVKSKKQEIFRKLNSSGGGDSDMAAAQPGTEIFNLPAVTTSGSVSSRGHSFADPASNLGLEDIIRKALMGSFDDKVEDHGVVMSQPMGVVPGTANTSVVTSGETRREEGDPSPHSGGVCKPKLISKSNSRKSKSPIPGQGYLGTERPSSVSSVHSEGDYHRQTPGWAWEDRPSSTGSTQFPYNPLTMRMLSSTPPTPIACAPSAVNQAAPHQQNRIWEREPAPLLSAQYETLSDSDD
UniProt Q92692, whole entry, looked up: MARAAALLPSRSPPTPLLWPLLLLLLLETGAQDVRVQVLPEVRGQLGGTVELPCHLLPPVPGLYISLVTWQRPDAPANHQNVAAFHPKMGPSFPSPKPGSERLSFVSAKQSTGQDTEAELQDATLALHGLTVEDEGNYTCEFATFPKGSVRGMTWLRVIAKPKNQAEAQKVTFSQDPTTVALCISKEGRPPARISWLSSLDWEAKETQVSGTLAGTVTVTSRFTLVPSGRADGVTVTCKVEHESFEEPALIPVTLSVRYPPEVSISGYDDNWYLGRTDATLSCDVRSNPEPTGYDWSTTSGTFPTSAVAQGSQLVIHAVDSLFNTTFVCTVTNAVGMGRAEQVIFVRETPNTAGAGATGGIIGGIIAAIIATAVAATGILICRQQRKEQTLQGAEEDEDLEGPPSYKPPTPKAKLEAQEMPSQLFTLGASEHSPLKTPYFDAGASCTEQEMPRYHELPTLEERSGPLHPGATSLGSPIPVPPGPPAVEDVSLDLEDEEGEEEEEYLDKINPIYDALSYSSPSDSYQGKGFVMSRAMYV
UniProt P19838: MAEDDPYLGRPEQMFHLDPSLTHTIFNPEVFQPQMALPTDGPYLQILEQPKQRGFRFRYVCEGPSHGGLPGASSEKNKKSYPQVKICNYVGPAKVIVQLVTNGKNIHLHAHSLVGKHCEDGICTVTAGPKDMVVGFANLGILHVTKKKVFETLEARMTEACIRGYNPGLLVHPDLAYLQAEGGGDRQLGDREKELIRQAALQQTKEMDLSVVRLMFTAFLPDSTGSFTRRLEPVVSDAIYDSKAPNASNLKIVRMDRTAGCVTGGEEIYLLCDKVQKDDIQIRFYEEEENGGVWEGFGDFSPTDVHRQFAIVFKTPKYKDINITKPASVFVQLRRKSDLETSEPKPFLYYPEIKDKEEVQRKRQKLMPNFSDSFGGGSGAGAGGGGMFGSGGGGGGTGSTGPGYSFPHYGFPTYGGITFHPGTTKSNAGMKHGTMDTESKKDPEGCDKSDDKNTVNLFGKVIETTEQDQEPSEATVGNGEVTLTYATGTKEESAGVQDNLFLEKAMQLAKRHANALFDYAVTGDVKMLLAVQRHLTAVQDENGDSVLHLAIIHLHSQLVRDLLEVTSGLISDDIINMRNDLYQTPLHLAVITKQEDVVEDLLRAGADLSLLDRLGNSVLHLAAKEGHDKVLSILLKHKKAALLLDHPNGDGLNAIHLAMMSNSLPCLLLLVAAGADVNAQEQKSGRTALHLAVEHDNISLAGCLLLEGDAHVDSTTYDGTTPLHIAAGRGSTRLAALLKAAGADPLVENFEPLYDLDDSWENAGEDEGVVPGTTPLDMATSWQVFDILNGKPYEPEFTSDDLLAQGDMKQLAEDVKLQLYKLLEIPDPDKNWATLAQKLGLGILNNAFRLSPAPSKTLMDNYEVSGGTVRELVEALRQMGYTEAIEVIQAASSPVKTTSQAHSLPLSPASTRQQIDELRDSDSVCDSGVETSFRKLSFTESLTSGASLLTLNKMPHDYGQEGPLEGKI
UniProt Q9GZT8: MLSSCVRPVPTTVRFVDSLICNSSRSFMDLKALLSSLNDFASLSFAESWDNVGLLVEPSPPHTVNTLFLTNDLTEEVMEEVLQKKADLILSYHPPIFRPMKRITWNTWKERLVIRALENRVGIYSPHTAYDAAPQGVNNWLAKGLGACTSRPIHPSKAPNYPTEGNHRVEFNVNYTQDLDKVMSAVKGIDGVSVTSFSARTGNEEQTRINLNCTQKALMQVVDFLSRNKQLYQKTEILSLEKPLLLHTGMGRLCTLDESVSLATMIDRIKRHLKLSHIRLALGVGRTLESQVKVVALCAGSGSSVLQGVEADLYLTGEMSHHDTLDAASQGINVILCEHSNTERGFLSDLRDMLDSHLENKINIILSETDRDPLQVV
UniProt Q9NX24: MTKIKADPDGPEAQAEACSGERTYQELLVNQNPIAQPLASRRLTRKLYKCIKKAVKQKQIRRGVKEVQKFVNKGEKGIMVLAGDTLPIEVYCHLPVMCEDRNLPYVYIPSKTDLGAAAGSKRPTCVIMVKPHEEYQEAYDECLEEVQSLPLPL
UniProt P17568, whole entry, looked up: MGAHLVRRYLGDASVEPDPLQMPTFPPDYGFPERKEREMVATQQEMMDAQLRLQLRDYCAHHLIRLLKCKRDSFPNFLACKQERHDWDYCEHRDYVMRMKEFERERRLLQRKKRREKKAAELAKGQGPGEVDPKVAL

Compound: Cc1cc(ccc1-c1ccccc1)C(=O)N1CCCN(CC1)C(=O)CCl [compound 10]
Experiment: probe-labelled cysteine peptide fold change vs DMSO (competition) (log2 fold change); higher = less target engagement (more negative = stronger competition)
Conditions: THP-1, incubation time: 4 h
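Note: competitive profiling in live THP-1 cells: cysteine peptides tagged with an iodoacetamide desthiobiotin (IA-DTB) probe, intensity after compound treatment relative to DMSO-treated cells.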

Target | probe-labelled cysteine peptide fold change (10 µM) | probe-labelled cysteine peptide fold change (50 µM)
NKRF_O15226_386_VFLQDHCLAEGYGTK (UniProt O15226) | 0.0654 | 0.266
NELFCD_Q8IXH7_398_AVETVHNLCCNENK (UniProt Q8IXH7) | 0.0172 | -0.151
NGLY1_Q96IV0_283+286_EVEDHYCDACQFSNR (UniProt Q96IV0) | 0.0817 | -0.301
NIPBL_Q6KC79_304_GSRPPLILQSQSLPCSSPR (UniProt Q6KC79) | -0.0738 | -0.0903
NFX1_Q12986_778_VHECDHPVYHSCHSEEK (UniProt Q12986) | 0.0815 | -0.146
NEK4_P51957-2_463_DQDQVAGECIIEK (UniProt P51957) | -0.194 | -0.573
NCOR1_O75376_2322_REEGDPSPHSGGVCKPK (UniProt O75376) | -0.154 | -0.551
NEU1_Q99519_287_NQNNYHCHCR (UniProt Q99519) | 0.0522 | -0.00745
NDUFV1_P49821_382_HESCGQCTPCR (UniProt P49821) | 0.0373 | 0.0241
NFIC_P08651_163_AAQCGHPVLCVQPHHIGVAVK (UniProt P08651) | 0.0354 | -0.0269
NECTIN2_Q92692_283_TDATLSCDVR (UniProt Q92692) | -0.168 | -0.223
NFKB1_P19838_87_ICNYVGPAK (UniProt P19838) | 0.163 | 0.0367
NIF3L1_Q9GZT8_213_INLNCTQK (UniProt Q9GZT8) | 0.0939 | -0.215
NHP2_Q9NX24_142_PHEEYQEAYDECLEEVQSLPLPL (UniProt Q9NX24) | 0.0526 | 0.242
NECTIN2_Q92692_238_ADGVTVTCK (UniProt Q92692) | -0.148 | -0.394
NFX1_Q12986_832_SNIPCHLVDISCGLPCSATLPCGMHK (UniProt Q12986) | 0.0656 | -0.155
NID1_P14543_425_QCVAEGSPQR (UniProt P14543) | -0.139 | -0.633
NDUFB7_P17568_80_RDSFPNFLACK (UniProt P17568) | -0.129 | -0.352
NFX1_Q12986_951_LECDEECSALER (UniProt Q12986) | 0.0772 | -0.146

Some of the entries above, reformatted.
Target	probe-labelled cysteine peptide fold change (10 µM)	probe-labelled cysteine peptide fold change (50 µM)
NFKB1_P19838_87_ICNYVGPAK (UniProt P19838)	0.163	0.0367
NIF3L1_Q9GZT8_213_INLNCTQK (UniProt Q9GZT8)	0.0939	-0.215
NHP2_Q9NX24_142_PHEEYQEAYDECLEEVQSLPLPL (UniProt Q9NX24)	0.0526	0.242
NECTIN2_Q92692_238_ADGVTVTCK (UniProt Q92692)	-0.148	-0.394
NFX1_Q12986_832_SNIPCHLVDISCGLPCSATLPCGMHK (UniProt Q12986)	0.0656	-0.155
